Measured data: PubChem BioAssay AID1259424 (University of Nebraska Medical Center, 2018)
Test: 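Rank knockdowns across the genome by resemblance to the KSR1 depletion profile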 (primary screen). Cell system: human HCT116 colon cancer cells. Reagents: siRNA pool against human genes, 50 nM. Measurement: 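Six signature mRNAs by branched-DNA multiplex assay, scaled to two housekeeping genes and non-targeting median, log2; matched to mean KSR1 knockdown profile by Pearson correlation and euclidean distance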. Direction: mean correlation with KSR1 profile: higher = expression change more like KSR1 knockdown.
This is a random part of about 14,000 deposited reagents. 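Higher correlation or smaller distance means closer resemblance to KSR1 loss; control wells, including KSR1 knockdowns, recur on many plates.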 Not all columns of the deposit are shown. No sequences are given here. The record does not give: the time to read-out.

target	mean correlation with KSR1 profile
PRELID1	0.195
ZDHHC13	-0.751
NOS1	0.702
APOF	0.329
VDAC1	0.07
HOXA13	0.727
SYNDIG1	-0.718
MLN	0.517
KLRG1	0.221
PEX6	0.554
CARF	0.233
MAP7	0.00783
NFE2L2	0.246
NDUFA3	0.13
MRPL19	0.0592
PPP1R17	0.0703
KCNG1	-0.171
PLAG1	-0.00365
CCL24	-0.307
USP45	0.586
MT-ATP6	0.223
ENPEP	0.0367
LRRC8E	0.286
BSN	-0.418
DDIT3	0.518
ITPKB	0.649
DNPH1	-0.637
BRAF	0.0162
NUP93	0.239
PLEKHJ1	-0.254
MPRIP	-0.111
ZNRF3	0.752
TRPM6	0.586
PPARGC1B	0.364
XPNPEP2	0.612
RO60	-0.449
SIDT2	-0.145
DYRK1B	0.267
ALKBH3	-0.0394
RGS14	0.665
RASAL1	0.434
TUBB	0.636
BBS2	-0.54
UFC1	0.35
RPS11	-0.28
PTPRF	-0.184
CRHR1	0.841
SERPINB10	0.279
NANS	-0.778
KRT34	0.326
XPO7	0.312
CDR1	-0.579
CPNE7	-0.21
NOTCH1	-0.0704
DCAF13	-0.209
RAC3	-0.161
ADCY4	-0.458
FFAR3	0.489
VSIG2	0.537
RORB	-0.708
MEFV	0.794
STOX2	-0.673
CD9	0.512

Look-ups from the entries so far.
DYRK1B, mean correlation with KSR1 profile → 0.267
Under “mean correlation with KSR1 profile”, PLEKHJ1 is entered as -0.254
Entry of VDAC1 in “mean correlation with KSR1 profile”: 0.07
Under “mean correlation with KSR1 profile”, NFE2L2 reads 0.246
Entry for CDR1 under “mean correlation with KSR1 profile”: -0.579
PTPRF, mean correlation with KSR1 profile → -0.184
